Assay results: the supplement of paper PMC6411743
± gives the standard deviation of the averaged measurements. The entries are a selection whose mix differs from that of the whole data set. Most entries show no effect beyond the scatter of the controls.

By UniProt entry, the sequences of proteins in these tests, tags left out. Where a name states a change or a piece, a line headed by the entry shows the natural chain unless it says otherwise.
UniProt P63151: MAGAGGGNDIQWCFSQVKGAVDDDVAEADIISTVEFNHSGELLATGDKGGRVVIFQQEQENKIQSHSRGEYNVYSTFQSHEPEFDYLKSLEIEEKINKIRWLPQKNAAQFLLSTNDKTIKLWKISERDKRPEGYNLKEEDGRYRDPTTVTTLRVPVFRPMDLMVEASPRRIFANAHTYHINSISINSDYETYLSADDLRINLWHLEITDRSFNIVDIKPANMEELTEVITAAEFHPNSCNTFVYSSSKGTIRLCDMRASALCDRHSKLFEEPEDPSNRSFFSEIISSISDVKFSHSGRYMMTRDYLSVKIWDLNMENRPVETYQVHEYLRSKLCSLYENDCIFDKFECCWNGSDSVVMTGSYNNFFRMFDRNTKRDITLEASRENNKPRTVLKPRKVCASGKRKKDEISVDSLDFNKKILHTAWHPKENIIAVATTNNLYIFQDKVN
UniProt O75347: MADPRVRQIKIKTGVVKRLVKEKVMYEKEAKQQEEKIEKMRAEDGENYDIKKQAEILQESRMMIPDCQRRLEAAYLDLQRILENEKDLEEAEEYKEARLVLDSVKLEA
UniProt P68400, whole entry, looked up: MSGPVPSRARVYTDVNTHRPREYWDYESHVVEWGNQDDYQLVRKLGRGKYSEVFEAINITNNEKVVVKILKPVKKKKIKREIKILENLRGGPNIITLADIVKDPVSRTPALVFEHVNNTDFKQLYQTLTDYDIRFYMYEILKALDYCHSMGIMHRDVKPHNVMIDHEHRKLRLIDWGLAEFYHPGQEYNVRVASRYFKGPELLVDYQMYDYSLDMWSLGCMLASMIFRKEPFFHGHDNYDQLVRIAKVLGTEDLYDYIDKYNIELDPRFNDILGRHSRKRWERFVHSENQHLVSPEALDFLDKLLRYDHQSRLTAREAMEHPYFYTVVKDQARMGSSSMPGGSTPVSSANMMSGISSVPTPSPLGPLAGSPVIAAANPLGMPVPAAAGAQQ
UniProt Q99590: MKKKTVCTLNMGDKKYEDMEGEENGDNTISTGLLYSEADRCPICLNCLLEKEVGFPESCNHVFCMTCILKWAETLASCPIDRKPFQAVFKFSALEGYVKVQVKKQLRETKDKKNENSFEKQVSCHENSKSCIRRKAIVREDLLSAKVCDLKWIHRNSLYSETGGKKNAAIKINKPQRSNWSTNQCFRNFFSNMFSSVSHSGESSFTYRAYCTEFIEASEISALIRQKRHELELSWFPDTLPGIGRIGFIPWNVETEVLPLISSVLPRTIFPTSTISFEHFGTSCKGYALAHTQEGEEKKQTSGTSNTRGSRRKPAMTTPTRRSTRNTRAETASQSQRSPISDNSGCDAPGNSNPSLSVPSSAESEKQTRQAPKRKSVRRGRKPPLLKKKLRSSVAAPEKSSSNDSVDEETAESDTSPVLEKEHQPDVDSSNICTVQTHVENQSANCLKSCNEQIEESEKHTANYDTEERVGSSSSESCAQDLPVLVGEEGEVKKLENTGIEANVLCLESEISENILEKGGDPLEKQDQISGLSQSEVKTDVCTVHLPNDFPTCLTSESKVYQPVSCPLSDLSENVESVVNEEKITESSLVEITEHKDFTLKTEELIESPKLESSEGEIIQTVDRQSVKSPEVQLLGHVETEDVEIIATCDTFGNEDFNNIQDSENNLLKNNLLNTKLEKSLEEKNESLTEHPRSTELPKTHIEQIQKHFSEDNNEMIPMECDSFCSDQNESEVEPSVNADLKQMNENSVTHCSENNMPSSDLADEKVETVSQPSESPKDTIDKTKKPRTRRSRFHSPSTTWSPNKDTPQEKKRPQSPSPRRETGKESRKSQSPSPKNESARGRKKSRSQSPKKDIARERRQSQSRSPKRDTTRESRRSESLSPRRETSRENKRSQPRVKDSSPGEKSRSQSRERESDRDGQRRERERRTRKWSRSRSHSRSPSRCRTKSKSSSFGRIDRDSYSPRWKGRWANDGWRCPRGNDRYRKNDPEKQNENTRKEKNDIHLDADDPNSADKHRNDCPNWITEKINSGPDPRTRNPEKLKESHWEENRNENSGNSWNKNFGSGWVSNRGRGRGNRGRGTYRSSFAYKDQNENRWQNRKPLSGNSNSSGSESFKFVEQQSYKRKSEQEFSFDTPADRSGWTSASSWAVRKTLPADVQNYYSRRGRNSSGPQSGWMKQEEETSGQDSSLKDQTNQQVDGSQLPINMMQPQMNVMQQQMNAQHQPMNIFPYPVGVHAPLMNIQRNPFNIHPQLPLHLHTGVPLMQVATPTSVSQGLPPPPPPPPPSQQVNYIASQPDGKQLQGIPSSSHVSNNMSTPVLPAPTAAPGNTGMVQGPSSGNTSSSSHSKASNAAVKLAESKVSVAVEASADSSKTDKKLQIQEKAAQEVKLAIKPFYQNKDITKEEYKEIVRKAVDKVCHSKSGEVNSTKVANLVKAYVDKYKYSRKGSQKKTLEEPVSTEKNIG
UniProt P32780: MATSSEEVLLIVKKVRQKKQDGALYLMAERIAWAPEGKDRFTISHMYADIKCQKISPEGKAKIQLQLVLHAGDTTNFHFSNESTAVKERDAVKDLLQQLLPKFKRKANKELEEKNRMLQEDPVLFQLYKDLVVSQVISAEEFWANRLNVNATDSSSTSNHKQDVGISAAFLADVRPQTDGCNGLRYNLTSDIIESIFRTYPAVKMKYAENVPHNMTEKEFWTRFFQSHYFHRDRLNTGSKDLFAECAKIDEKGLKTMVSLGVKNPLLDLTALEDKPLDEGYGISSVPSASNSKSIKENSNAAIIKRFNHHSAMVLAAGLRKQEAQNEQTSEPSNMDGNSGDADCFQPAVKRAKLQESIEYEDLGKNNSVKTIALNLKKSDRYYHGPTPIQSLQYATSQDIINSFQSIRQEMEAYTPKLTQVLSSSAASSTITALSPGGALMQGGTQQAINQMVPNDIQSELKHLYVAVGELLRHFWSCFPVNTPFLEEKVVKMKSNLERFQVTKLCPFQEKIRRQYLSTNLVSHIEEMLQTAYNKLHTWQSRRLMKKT
UniProt Q9GZZ1: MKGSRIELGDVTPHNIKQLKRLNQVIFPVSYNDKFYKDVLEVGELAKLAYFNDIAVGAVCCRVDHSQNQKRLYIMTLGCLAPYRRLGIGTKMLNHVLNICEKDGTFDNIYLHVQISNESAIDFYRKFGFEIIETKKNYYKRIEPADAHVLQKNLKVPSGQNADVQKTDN
UniProt O43913: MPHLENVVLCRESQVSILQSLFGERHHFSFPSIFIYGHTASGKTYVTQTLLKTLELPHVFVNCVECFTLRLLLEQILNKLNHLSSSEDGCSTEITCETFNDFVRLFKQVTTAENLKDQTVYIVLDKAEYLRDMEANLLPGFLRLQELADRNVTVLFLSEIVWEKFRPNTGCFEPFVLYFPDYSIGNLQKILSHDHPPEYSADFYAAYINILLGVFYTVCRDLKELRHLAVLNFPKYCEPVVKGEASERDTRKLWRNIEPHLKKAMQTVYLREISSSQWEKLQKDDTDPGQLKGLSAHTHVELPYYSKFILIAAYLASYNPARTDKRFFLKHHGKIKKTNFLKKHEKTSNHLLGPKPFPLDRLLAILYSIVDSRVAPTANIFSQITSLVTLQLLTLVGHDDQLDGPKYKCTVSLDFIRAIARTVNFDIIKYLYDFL
UniProt Q15043: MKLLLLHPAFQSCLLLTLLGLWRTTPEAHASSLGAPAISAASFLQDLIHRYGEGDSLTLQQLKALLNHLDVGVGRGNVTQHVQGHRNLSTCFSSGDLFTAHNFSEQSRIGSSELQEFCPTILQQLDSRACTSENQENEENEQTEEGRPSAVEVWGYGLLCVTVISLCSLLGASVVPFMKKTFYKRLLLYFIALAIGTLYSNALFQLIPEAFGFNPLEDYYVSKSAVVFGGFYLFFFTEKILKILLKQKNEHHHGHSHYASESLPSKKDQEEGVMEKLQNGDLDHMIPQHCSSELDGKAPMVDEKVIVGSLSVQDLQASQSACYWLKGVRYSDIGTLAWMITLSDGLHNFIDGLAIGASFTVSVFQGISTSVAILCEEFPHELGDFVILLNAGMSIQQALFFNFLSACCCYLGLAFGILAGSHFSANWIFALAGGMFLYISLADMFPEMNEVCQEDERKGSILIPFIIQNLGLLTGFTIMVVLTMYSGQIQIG
UniProt P09496: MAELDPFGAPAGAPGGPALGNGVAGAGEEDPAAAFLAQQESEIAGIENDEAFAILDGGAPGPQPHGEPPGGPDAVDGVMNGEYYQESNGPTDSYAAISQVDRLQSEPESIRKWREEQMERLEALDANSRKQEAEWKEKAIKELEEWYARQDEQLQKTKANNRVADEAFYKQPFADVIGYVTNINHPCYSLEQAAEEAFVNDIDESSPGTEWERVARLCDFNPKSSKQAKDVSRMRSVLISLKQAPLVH
UniProt P56134: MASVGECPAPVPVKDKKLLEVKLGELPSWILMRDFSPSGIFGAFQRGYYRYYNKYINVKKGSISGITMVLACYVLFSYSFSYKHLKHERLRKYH
UniProt Q15843, whole entry: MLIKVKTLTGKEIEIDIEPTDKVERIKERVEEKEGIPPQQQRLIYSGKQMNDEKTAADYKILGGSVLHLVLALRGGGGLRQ
UniProt Q9NZD2: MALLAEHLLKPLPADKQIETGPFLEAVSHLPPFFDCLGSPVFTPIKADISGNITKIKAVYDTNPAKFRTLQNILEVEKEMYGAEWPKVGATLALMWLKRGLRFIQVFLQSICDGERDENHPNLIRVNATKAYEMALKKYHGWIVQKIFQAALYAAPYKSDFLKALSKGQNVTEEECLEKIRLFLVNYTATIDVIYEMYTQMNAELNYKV
UniProt Q8N4H5: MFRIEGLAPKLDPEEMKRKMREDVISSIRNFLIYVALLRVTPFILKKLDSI
UniProt Q9Y315: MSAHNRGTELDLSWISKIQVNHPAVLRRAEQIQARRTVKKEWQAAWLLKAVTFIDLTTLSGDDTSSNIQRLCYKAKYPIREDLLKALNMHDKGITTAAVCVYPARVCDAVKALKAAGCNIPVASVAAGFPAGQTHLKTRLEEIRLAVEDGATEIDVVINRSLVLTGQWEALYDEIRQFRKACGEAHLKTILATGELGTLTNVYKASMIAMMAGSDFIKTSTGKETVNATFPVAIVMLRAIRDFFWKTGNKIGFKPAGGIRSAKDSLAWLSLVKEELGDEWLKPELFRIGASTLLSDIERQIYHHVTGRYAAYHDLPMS
UniProt O15182: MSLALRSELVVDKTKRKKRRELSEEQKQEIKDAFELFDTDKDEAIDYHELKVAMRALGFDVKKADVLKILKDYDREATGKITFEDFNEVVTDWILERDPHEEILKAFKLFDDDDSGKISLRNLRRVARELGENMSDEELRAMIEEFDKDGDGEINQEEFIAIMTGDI
UniProt Q9UKV3: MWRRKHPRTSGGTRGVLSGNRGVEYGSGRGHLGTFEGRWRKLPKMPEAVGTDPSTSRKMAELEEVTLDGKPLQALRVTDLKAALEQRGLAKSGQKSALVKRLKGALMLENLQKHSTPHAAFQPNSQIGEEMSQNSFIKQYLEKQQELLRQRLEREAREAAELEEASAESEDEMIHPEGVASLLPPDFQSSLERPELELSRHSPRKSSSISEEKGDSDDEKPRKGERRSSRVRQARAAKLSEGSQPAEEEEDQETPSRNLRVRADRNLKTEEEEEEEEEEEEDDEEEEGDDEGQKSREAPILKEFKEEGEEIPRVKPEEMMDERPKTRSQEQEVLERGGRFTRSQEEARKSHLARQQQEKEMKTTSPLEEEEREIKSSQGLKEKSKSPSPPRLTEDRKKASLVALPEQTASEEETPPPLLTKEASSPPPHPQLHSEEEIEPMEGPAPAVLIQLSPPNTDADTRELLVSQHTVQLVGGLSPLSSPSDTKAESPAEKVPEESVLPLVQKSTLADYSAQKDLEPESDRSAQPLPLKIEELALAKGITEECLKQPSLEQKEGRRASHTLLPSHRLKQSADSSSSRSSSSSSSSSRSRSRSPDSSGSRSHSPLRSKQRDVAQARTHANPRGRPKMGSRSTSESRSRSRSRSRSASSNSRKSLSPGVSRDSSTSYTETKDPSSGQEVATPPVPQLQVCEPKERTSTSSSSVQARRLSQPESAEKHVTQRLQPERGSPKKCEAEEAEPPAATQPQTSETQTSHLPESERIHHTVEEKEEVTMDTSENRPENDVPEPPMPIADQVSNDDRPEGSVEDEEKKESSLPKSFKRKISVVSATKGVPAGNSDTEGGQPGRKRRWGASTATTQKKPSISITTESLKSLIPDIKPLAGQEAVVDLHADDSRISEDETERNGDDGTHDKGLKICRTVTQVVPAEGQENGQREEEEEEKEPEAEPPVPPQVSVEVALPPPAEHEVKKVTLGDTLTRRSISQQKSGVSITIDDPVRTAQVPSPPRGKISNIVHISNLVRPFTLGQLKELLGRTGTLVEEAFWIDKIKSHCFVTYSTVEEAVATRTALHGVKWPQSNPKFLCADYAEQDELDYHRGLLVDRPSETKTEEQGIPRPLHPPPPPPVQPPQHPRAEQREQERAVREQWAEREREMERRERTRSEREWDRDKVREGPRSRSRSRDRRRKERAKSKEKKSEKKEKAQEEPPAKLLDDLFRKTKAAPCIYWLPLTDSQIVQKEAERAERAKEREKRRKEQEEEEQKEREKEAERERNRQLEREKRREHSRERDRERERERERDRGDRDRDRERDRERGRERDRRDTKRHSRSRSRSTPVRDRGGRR

Compound: Nc1ncnc2c1ncn2[C@@H]1O[C@H](COP(=O)(O)OP(=O)(O)NP(=O)(O)O)[C@@H](O)[C@H]1O [adenylyl imidodiphosphate]
Assay: NP40-soluble protein abundance relative to vehicle (solubility fold change) (ratio); higher = more soluble protein in presence of AMP-PNP
In short: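 In three independent experiments, Jurkat crude lysate made by Dounce homogenisation was treated for 10 min at room temperature and then 3 min at 37 °C with eight concentrations ranging from 0.1 to 10 mM. It was then solubilised with 0.8% NP40 plus benzonase for 60 min at 4 °C and ultracentrifuged. The supernatant was TMT-labelled for LC-MS/MS, and each value is the fold change against the detergent-processed vehicle for the same replicate, using vsn-normalised intensities.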

| Target | NP40-soluble protein abundance (concentration: 0.1mM) | NP40-soluble protein abundance (concentration: 0.5mM) |
| --- | --- | --- |
| G3V1P3 and related entries (UniProt Q969J3+G3V1P3) | 1.01 ± 0.079 | 0.998 ± 0.035 |
| F5H2X7 and related entries (UniProt Q9ULV3) | 1.02 ± 0.041 | 1.03 ± 0.072 |
| E7EUU4 and related entries (UniProt Q04637) | 1.03 ± 0.031 | 1.04 ± 0.038 |
| F5GX51 and related entries (UniProt Q9Y4F9) | 0.964 ± 0.015 | 0.985 ± 0.02 |
| E5RJV1 and related entries (UniProt P63151) | 0.991 ± 0.021 | 0.99 ± 0.042 |
| E7EMS2 and related entries (UniProt P61916) | 0.932 ± 0.029 | 1.03 ± 0.058 |
| F8WA39 and related entries (UniProt Q13613) | 1.04 ± 0.038 | 1.02 ± 0.011 |
| E9PIW9 and related entries (UniProt Q6SPF0) | 1.01 ± 0.043 | 0.993 ± 0.047 |
| F6S8M0 and related entries (UniProt P15586) | 0.941 ± 0.052 | 0.989 ± 0.041 |
| E9PH64 and related entries (UniProt Q9Y6M9) | 1.02 ± 0.057 | 1.06 ± 0.12 |
| F8VX04 and related entries (UniProt Q9H2H9) | 1.02 ± 0.13 | 1.13 ± 0.24 |
| E5RIW3 and related entries (UniProt O75347) | 1.027 ± 0.0075 | 1.05 ± 0.062 |
| E9PLL6 and related entries (UniProt P46776) | 1.05 ± 0.046 | 1 ± 0.041 |
| E7EU96 and related entries (UniProt P68400) | 1.1 ± 0.077 | 1.03 ± 0.14 |
| F8VXG7 and related entries (UniProt Q99590) | 1.03 ± 0.029 | 1.05 ± 0.05 |
| E9PM51 and related entries (UniProt P32780) | 0.999 ± 0.018 | 1 ± 0.016 |
| F5H5U2 and related entries (UniProt Q8NHQ9) | 1.02 ± 0.044 | 1.02 ± 0.02 |
| E7EQ52 and related entries (UniProt O95271) | 0.9761 ± 0.0063 | 0.946 ± 0.034 |
| F5H7J9 and related entries (UniProt O75581) | 0.981 ± 0.031 | 1.01 ± 0.049 |
| E7EQ69 (UniProt Q9GZZ1) | 0.998 ± 0.022 | 1.04 ± 0.033 |
| F5GWN5 and related entries (UniProt O00750) | 0.994 ± 0.018 | 0.979 ± 0.025 |
| E7EX90 and related entries (UniProt Q14203) | 0.997 ± 0.027 | 1 ± 0.046 |

| Target | NP40-soluble protein abundance (concentration: 0.1mM) | NP40-soluble protein abundance (concentration: 0.5mM) |
| --- | --- | --- |
| F5H1D6 and related entries (UniProt Q07864) | 0.993 ± 0.035 | 0.987 ± 0.018 |
| G3V0H0 and related entries (UniProt O43913) | 0.991 ± 0.034 | 0.982 ± 0.063 |
| E9PEN0 and related entries (UniProt Q8WYH8) | 1.01 ± 0.013 | 0.9987 ± 0.0027 |
| E9PE19 and related entries (UniProt Q12830) | 0.983 ± 0.039 | 1.02 ± 0.059 |
| E5RJ40 and related entries (UniProt Q15043) | 1.011 ± 0.0026 | 1.002 ± 0.0058 |
| F8W950 and related entries (UniProt Q13155) | 1.03 ± 0.053 | 0.997 ± 0.043 |
| F8WF69 and related entries (UniProt P09496) | 0.96 ± 0.039 | 0.9354 ± 0.0072 |
| G3V325 (UniProt P56134) | 0.998 ± 0.042 | 0.9723 ± 0.0015 |
| F8W9W2 and related entries (UniProt P43250) | 1.01 ± 0.017 | 1.06 ± 0.028 |
| E9PG19 and related entries (UniProt O94868) | 0.984 ± 0.01 | 0.983 ± 0.03 |
| F8W809 and related entries (UniProt Q16881) | 0.988 ± 0.013 | 1.01 ± 0.029 |
| E9PL57 and related entries (UniProt Q15843) | 0.934 ± 0.053 | 0.959 ± 0.011 |
| F8W8I6 and related entries (UniProt P31483) | 0.994 ± 0.022 | 0.98 ± 0.016 |
| UniProt E9PSI1 | 0.981 ± 0.1 | 0.972 ± 0.097 |
| E9PIN3 and related entries (UniProt Q9UBU9) | 0.987 ± 0.017 | 1.01 ± 0.034 |
| F5H0U5 and related entries (UniProt Q9NZD2) | 1 ± 0.097 | 0.996 ± 0.075 |
| E9PK67 and related entries (UniProt Q53GL7) | 1.02 ± 0.02 | 1 ± 0.014 |
| F8W8Z9 and related entries (UniProt Q8N4H5) | 1.0126 ± 0.0002 | 1.02 ± 0.049 |
| E7ER02 and related entries (UniProt Q9NZJ5) | 0.995 ± 0.026 | 0.984 ± 0.051 |
| E9PJB9 and related entries (UniProt Q9Y315) | 0.982 ± 0.039 | 1.01 ± 0.066 |
| E5RJF8 and related entries (UniProt O15182) | 0.999 ± 0.03 | 1.03 ± 0.011 |
| E7EQT4 and related entries (UniProt Q9UKV3) | 0.998 ± 0.038 | 1.04 ± 0.048 |
